In publication doi:10.1101/2020.03.23.003509 one finds binding data, which are given here for two substances.

No constants are given. Whether binding was seen depends on the method and setting. Binding seen in cells or lysates may run through a third protein. Binding calls can cover weak binding; strength is not graded here. For part of these data: Tags and fused reporters may be left off the sequences shown.

Test [1] addresses T1, GST-Kaiso (full-length Kaiso, ZBTB33, from pEBG-GST-Kaiso) (human) (UniProt Q86T24).
T1 sequence: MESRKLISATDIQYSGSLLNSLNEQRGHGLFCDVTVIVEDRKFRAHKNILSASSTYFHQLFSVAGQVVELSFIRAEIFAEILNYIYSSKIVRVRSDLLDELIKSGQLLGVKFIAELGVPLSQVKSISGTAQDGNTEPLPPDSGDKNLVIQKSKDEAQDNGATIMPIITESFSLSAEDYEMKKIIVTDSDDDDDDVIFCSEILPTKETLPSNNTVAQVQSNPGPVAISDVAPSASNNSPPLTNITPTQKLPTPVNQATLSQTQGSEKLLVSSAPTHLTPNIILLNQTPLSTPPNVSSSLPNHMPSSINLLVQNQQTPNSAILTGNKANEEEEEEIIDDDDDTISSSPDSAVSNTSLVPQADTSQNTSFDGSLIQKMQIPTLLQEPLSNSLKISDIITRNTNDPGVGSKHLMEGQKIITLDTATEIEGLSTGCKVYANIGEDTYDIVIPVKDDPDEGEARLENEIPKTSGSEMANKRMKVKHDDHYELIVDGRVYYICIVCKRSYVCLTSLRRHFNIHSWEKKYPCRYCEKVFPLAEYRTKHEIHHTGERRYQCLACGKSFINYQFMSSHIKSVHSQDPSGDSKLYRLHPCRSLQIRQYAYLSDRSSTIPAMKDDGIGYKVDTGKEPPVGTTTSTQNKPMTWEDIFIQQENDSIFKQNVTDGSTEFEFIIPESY
In words: pull-down.

Test [2] concerns the target T2, endogenous Kaiso (ZBTB33) (human (endogenous in MGC803)) (UniProt Q86T24).
T2 sequence: T1 sequence
Nature of the test: co-IP.

Test [3] addresses T3, Kaiso wild type (Kaiso-wt), transfected, from pEGFP-C1-Kaiso (human) (UniProt Q86T24).
T3 sequence: T1 sequence
Nature of the test: co-IP.

As to Flag-14-3-3ζ (human), in test [1], the binding result was “binds”.
For the substance “endogenous pan-14-3-3 (human (endogenous in MGC803))”, the binding result in test [2] and in test [3] was “binds” in each case.
